Experimental data: PubChem BioAssay AID1159584 (Peter MacCallum Cancer Centre, 2016)

Assay: 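Genes whose loss is lethal only together with E-cadherin loss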 (primary screen)
Cell system: human MCF10A breast epithelial cells, parental and CDH1-null
Reagent: siRNA against human genes
Measured: 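ATP luminescence (CellTiter-Glo) viability per line relative to mean mock wells over all plates, and the ratio of CDH1-null to parental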
Reading the numbers: CDH1-null / parental viability ratio: higher = CDH1-null cells survive relatively better than parental
The deposit covers about 18,000 reagents; below is a part drawn at random. Further read-outs or replicates are left out here. Not given: the amount of reagent, the time to read-out.

The opening 2 records, to show the layout:
Target gene | CDH1-null / parental viability ratio
PCGF2 | 0.84
VASH2 | 0.76

The list itself, from the start:
Target gene | CDH1-null / parental viability ratio
PCGF2 | 0.84
VASH2 | 0.76
HSPB8 | 1.24
TRAPPC10 | 1.04
TRADD | 1.43
AP4S1 | 1.13
RRAS | 0.88
PPBP | 0.85
BSN | 1
ST6GALNAC6 | 1.09
DYNC2H1 | 0.85
PRMT2IP | 0.84
SLC9A9 | 1.16
RBAKDN | 0.84
PCDHB6 | 1.12
MAGEF1 | 0.81
GOT1 | 1.19
DBI | 0.86
SPINK14 | 1.43
UHMK1 | 1.07
NINJ2 | 1.17
MYT1L | 1.06
LAMB4 | 1.18
ADAMTS17 | 1.18
CNR2 | 1.37
STEAP4 | 0.89
PPP4C | 1.37
HBP1 | 1.19
ITPRIPL1 | 0.94
LRRC59 | 1.24
AGR2 | 0.75
PABIR2 | 0.89
TIMD4 | 1.02
CNTNAP3 | 0.96
SPINK2 | 0.98
NAPEPLD | 0.82
RHEB | 0.93
CTU1 | 1.21
MRPL44 | 1.08
RIGI | 1.03
SLFN5 | 1.04
CTSW | 1.43
APEX2 | 0.9
SLC7A10 | 0.95
PEF1 | 1.16
ALG3 | 1.07
